Values from PubChem BioAssay AID1259267 (Sanger Institute, 2017)

- Assay: 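Kinase and colorectal-mutated gene knock-downs lethal to GP5D cells alone or with drugs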 (primary screen)
- Cell system: human GP5D colorectal cancer cells
- Reagents: siRNA pool against human genes
- Treatment: anchor drugs at low dose: BYL719 1 µM, cetuximab 5 µg/ml, trametinib 10 nM, or DMSO vehicle
- Measurement: 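Mean replicate viability versus non-targeting pool, given as knock-down-alone robust z-score, DMSO fraction, and synergy with low-dose BYL719, cetuximab or trametinib (1 µM, 5 µg/ml, 10 nM)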
- Direction: robust z-score, knock-down alone: higher = more viable cells
- Hit rule: 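Active (essential alone) if knock-down without drug gives robust z-score under -3; drug synergy does not count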
- Meaning of the calls: active = essential alone; inactive = not essential
The deposit covers 794 reagents; shown is a part drawn at random. 9 of them (1.1%) were called active. 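Viability capped at 1; calls reflect loss of viability from knock-down alone, not synergy with drugs.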 Entries without a mark were called inactive. Further read-outs or replicates are left out here. Not stated in the record: the amount of reagent, the time to read-out.

gene	robust z-score, knock-down alone
MYO3B (myosin IIIB)	0.817
TBX3 (T-box transcription factor 3)	0.817
DCK (deoxycytidine kinase)	-2.98
CLK2 (CDC like kinase 2)	0.817
TYRO3 (TYRO3 protein tyrosine kinase)	0.817
CRIM1 (cysteine rich transmembrane BMP regulator 1)	-1.54
PKM (pyruvate kinase M1/2)	0.817
STRADA (STE20 related adaptor alpha)	-1.43
UHMK1 (U2AF homology motif kinase 1)	-0.174
EXOSC10 (exosome component 10)	-0.119
DNMT3A (DNA methyltransferase 3 alpha)	-1.81
MAP2K1 (mitogen-activated protein kinase kinase 1)	-1.69
CALM3 (calmodulin 3)	0.311
TSSK4 (testis specific serine kinase 4)	0.0628
MSR1 (macrophage scavenger receptor 1)	0.817
RPS6KA4 (ribosomal protein S6 kinase A4)	-1.35
STK17A (serine/threonine kinase 17a)	-0.574
GNAS (GNAS complex locus)	-0.577
CDC73 (cell division cycle 73)	0.0139
ARAF (A-Raf proto-oncogene, serine/threonine kinase)	0.817
EIF2AK3 (eukaryotic translation initiation factor 2 alpha kinase 3)	0.817
RPS6KL1 (ribosomal protein S6 kinase like 1)	0.455
KALRN (kalirin RhoGEF kinase)	0.00661
TPK1 (thiamin pyrophosphokinase 1)	-0.894
RNASEL (ribonuclease L)	0.817
RPS6KA5 (ribosomal protein S6 kinase A5)	-1.17
PIK3CG	-1.02
PRPS1 (phosphoribosyl pyrophosphate synthetase 1)	0.817
HASPIN (histone H3 associated protein kinase)	0.725
SYNCRIP (synaptotagmin binding cytoplasmic RNA interacting protein)	-0.577
PFKL (phosphofructokinase, liver type)	-0.434
STK24 (serine/threonine kinase 24)	0.817
PRKAG1 (protein kinase AMP-activated non-catalytic subunit gamma 1)	0.0671
SRPK1 (SRSF protein kinase 1)	0.817
NEK8 (NIMA related kinase 8)	0.0982
KSR1 (kinase suppressor of ras 1)	-0.116
AKT3 (AKT serine/threonine kinase 3)	0.0968
DIS3 (DIS3 exosome endoribonuclease and 3'-5' exoribonuclease)	0.585
HK1 (hexokinase 1)	0.817
MAPK11 (mitogen-activated protein kinase 11)	0.432
PKN1 (protein kinase N1)	0.525
PRKCI (protein kinase C iota)	0.817
TRIB2 (tribbles pseudokinase 2)	0.551
JAK2 (Janus kinase 2)	0.79
MAPK3 (mitogen-activated protein kinase 3)	-2.21
CSNK1G3 (casein kinase 1 gamma 3)	0.612
PAK2 (p21 (RAC1) activated kinase 2)	0.817
PRAG1 (PEAK1 related, kinase-activating pseudokinase 1)	-1.08
MAPK9 (mitogen-activated protein kinase 9)	0.817
CDK11A (cyclin dependent kinase 11A)	-2.78
MAP4K5 (mitogen-activated protein kinase kinase kinase kinase 5)	-3.54 (active)
MAPK12 (mitogen-activated protein kinase 12)	0.409
RSKR (ribosomal protein S6 kinase related)	0.47
ACVR1 (activin A receptor type 1)	0.268
NEK7 (NIMA related kinase 7)	0.629
AK5 (adenylate kinase 5)	-0.664
MAP4K3 (mitogen-activated protein kinase kinase kinase kinase 3)	-0.0719
MAP3K10 (mitogen-activated protein kinase kinase kinase 10)	0.817
EPHA3 (EPH receptor A3)	0.535
NPR2 (natriuretic peptide receptor 2)	-0.16
MOS (MOS proto-oncogene, serine/threonine kinase)	0.817
NEK11 (NIMA related kinase 11)	0.115
MAPK14 (mitogen-activated protein kinase 14)	0.817
